Reference: US20250018037A1 (SEOUL NATIONAL UNIVERSITY R AND DB FOUNDATION, published 2025)
These are yes or no findings as the source states them, for the method shown. Some results given as binding are weak or reduced against the parent protein; the word gives no strength. Sequences can lack the tags named with a protein.

Protein sequences, listed by entry. Tags and fused reporters are not part of them. Lines headed by an entry give the natural chain unless they say otherwise; changes in a name come on top. Residues count along the entry.
UniProt P25942: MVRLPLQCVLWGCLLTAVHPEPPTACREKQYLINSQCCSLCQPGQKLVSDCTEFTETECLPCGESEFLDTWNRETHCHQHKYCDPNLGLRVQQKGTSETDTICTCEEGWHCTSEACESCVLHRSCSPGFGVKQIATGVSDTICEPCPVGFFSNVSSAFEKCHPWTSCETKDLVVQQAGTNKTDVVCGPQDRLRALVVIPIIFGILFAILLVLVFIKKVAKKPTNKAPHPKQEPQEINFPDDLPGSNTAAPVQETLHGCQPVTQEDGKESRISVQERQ
Recombinant human CD40-Fc (1493-CDB, R&D systems): residues 21-193 of P25942

Experiments:
[1] = biological target: Mouse CD40 on cells (A20 lymphoma cells, EL4-mCD40 cells, peritoneal macrophages, splenic dendritic cells) (mouse) (UniProt P27512); test: flow cytometry on A20 cells (FIG. 8B)
[2] = biological target: T1, Recombinant mouse CD40-Fc (1215-CD, R&D systems) (mouse) (UniProt P27512); test: ELISA, mouse CD40-Fc coated at 2.5 µg/ml, detection with anti-human Cκ-HRP
T1 sequence (looked up): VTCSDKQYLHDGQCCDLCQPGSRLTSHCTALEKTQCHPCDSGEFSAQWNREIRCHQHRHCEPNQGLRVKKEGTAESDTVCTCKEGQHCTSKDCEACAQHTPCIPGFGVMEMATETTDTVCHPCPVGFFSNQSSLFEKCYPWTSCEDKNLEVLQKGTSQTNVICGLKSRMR

[3] = biological target: T1, Recombinant mouse CD40-Fc (1215-CD, R&D systems) (mouse); test: ELISA on coated mouse CD40-Fc (FIG. 8A)
[4] = biological target: Mouse CD40 on cells (A20 lymphoma cells, EL4-mCD40 cells, peritoneal macrophages, splenic dendritic cells) (mouse) (UniProt P27512); test: flow cytometry on A20 cells, detection with anti-human Cκ-APC
[5] = biological target: T1, Recombinant mouse CD40-Fc (1215-CD, R&D systems) (mouse); test: ELISA on coated mouse CD40-Fc, detection with anti-human Cκ-HRP
[6] = biological target: T2, Human CD40 on cells (Raji, Daudi, IM-9) (human, UniProt P25942 21-277); test: flow cytometry on Raji cells, detection with anti-human Ck-APC
T2 construct: whole, on cells; also called cell surface CD40; hCD40

[7] = biological target: Recombinant human CD40-Fc (1493-CDB, R&D systems) (human) (UniProt P25942); test: ELISA on coated human CD40-Fc, detection with anti-human Cκ-HRP
[8] = biological target: T2, Human CD40 on cells (Raji, Daudi, IM-9); test: flow cytometry on Raji cells (FIG. 13B)
[9] = biological target: Recombinant human CD40-Fc (1493-CDB, R&D systems) (human) (UniProt P25942); test: ELISA, human CD40-Fc coated at 2.5 µg/ml, detection with anti-human Cκ-HRP
[10] = biological target: Recombinant human CD40-Fc (1493-CDB, R&D systems) (human) (UniProt P25942); test: ELISA on coated human CD40-Fc (FIG. 13A)

Measured: binding

B1: C1C02-Cκ (anti-mouse CD40 scFv clone C1C02 fused with human immunoglobulin kappa light chain constant region) (scFv)
scFv: QAALTQPSSVSANPGETVKITCSGGSSNYGWYQQKSPGSAPATVIYDNTNRPSDIPSRFSGALSGSTATLTITGVQVEDEAVYYCGGYDSGTYAGIFGAGTTLTVLGQSSRSSGGGGSSGGGGSAVTLDESGGGLQTPGGTLSLACKGSGFTFSSVNMQWVRQAPGKGLEWVAGISSDGSYTAYGAAVKGRATISRDNGQSTVRLQLNNLRAEDTAIYYCAKIAGGYYWDAAYSIDMWGHGTEVIVSSTSGQAGQRTVAAPSVFIFPPSDEQLKSGTASVVCLLNNFYPREAKVQWKVDNALQSGNSQESVTEQDSKDSTYSLSSTLTLSKADYEKHKVYACEVTHQGLSSPVTKSFNRGES
notes: also called C1C02 scFv; anti-mouse CD40 antibody (clone C1C02)
binds: [1] | [2] | [3] | [4] | [5]

B2: 2B1-Cκ (anti-human CD40 scFv clone 2B1 fused with human Cκ) (scFv)
scFv: QAALTQPSSVSANPGETVKITCSGGDSYAGSYYYGWFQQKAPGSAPVTVIYYNDKRPSDIPSRFSGSTSGSTSTLTITGVQAEDEAVYYCGSIDTSSGTGIFGAGTTLTVLGQSSRSSGGGGSSGGGGSAVTLDESGGGLQTPGGALSLVCKGSGFTFSSYQMFWVRQAPGKGLEYVAEISGSGLSTWYAPAVKGRATISRDNGQSTVRLQLNNLRAEDTGTYYCAKAAGSCGVGTCAGGIVDGIDAWGHGTEVIVSSTSGQAGQRTVAAPSVFIFPPSDEQLKSGTASVVCLLNNFYPREAKVQWKVDNALQSGNSQESVTEQDSKDSTYSLSSTLTLSKADYEKHKVYACEVTHQGLSSPVTKSFNRGES
notes: also called 2B1-Ck; free 2B1
binds: [6] | [7] | [8] | [9] | [10]

B3: 2E1-Cκ (anti-human CD40 scFv clone 2E1 fused with human Cκ) (scFv)
scFv: QAALTQPSSVSANPGETVKITCSGSSSSYYGWYQQKAPGSAPVTLIYANDKRPSDIPSRFSGSKSGSTHTLTITGVQADDEAVYFCGSADSTDSGFGAGTTLTVLGQSSRSSGGGGSSGGGGSAVTLDESGGGLQTPGGALSLVCKASGFSFSSYSMHWVRQAPGKGLEFVAAISSDGSRYTHYGPAVKGRATISRDNGQSTVRLQLNNLRPEDTGTYYCAKTSNTWTWNTGWIDAWGHGTEVIVSSTSGQAGQRTVAAPSVFIFPPSDEQLKSGTASVVCLLNNFYPREAKVQWKVDNALQSGNSQESVTEQDSKDSTYSLSSTLTLSKADYEKHKVYACEVTHQGLSSPVTKSFNRGES
notes: also called 2E1-Ck
binds: [6] | [7] | [8] | [9] | [10]
